No constants are given. Whether binding was seen depends on the method and setting. Some results given as binding are weak or reduced against the parent protein; the word gives no strength.
How the values were obtained:
[1] = biological target: TGF-β1 LAP (Homo sapiens (Human)) (UniProt P01137); test: flow cytometry of stably co-transfected 300.19 cells stained with fluorescent antibodies directed to the expressed proteins
[2] = biological target: proTGF-β1 (Homo sapiens (Human)) (UniProt P01137); test: as above
[3] = biological target: proTGF-β1 (Homo sapiens (Human)) (UniProt P01137); test: co-expression, Ni-NTA purification through the His tag, SDS-PAGE under reducing or non-reducing conditions

Amino acid sequences for entries named in this document (tags omitted). A change or cut given only in a name is not applied to a line headed by its entry.
UniProt P01137: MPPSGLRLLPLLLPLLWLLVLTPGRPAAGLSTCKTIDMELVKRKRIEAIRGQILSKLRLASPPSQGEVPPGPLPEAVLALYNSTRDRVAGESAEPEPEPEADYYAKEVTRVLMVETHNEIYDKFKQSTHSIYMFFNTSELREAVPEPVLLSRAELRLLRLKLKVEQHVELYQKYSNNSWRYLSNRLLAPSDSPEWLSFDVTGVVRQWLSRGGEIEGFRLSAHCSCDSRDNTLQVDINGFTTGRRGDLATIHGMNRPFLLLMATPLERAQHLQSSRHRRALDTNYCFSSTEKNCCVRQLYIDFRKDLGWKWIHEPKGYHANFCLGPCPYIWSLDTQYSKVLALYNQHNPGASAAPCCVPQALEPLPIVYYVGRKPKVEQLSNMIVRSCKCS
UniProt Q14392: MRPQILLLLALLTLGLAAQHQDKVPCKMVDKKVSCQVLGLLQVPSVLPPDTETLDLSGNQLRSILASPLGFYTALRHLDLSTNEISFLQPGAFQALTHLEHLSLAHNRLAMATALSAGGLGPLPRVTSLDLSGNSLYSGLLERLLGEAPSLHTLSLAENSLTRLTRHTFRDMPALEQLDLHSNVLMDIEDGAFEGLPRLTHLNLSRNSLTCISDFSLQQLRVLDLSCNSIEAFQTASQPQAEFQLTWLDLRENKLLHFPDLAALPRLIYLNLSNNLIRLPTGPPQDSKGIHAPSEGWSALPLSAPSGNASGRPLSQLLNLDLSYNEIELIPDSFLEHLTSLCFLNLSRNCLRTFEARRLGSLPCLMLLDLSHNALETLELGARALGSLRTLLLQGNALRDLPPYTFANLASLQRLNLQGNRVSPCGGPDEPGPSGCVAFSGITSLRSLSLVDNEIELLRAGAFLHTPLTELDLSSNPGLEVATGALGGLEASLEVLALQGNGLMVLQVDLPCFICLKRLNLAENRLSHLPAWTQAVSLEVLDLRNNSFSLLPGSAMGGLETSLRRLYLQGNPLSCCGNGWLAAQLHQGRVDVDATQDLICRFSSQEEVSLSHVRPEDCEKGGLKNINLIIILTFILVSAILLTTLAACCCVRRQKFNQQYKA

Substance | binding [1] | binding [2] | binding [3]
(membrane-bound) GARP (from UniProt Q14392 20-662) (receptor) | binds | binds | –
His-tagged sGARP (from UniProt Q14392 20-627) (receptor) | – | – | binds

— patent publication US20260109757A1
